Literature values as cited in patent US10322161B2, “EPHA4 cyclic peptide antagonists for neuroprotection and neural repair” (Sanford Burnham Prebys Medical Discovery Institute, priority 2014, dated 2019).
At least one peptide structure holds a part that was inferred or is arguable (an end, a ring closure or a residue). Ends that are not written are not given here.

Test system: toxic effects of Aβ oligomers
Conditions: in vitro and in vivo mouse models; cited from earlier work

KYLPYWPVLSSL [KYL]
effect on toxic effects of Aβ oligomers: inhibit the toxic effects of Aβ oligomers
